# The campaign covered roughly 2,000 compounds. About 45 (2%) were called active.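 Rule for the calls: active = inhibition above the screen-wide mean inhibition plus 3 SD (cut at about 44% in these data); inactive = the rest.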 This is one part of the list. Where a SMILES comes first, the peptide text is derived from it. The star is where a group is joined. Boc = CC(C)(C)OC(=O)*
# Sequences of proteins named here, by UniProt entry; tags and fusion partners are left off. A change or cut given only in a name is not applied to a line headed by its entry.
# UniProt O60240: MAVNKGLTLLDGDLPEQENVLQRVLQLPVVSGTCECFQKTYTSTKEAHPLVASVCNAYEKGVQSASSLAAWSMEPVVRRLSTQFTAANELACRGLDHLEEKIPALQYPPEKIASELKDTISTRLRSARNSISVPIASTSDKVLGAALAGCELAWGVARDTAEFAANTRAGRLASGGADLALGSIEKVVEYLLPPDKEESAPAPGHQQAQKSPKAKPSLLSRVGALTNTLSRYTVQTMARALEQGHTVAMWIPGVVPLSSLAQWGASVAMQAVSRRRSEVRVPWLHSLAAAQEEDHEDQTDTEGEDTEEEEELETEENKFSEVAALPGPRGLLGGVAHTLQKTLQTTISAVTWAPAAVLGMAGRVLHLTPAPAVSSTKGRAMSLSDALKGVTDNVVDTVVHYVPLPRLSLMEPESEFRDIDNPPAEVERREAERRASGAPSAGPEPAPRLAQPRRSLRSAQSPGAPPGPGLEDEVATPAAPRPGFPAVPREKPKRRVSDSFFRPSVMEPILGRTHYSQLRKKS
# UniProt Q8WTS1: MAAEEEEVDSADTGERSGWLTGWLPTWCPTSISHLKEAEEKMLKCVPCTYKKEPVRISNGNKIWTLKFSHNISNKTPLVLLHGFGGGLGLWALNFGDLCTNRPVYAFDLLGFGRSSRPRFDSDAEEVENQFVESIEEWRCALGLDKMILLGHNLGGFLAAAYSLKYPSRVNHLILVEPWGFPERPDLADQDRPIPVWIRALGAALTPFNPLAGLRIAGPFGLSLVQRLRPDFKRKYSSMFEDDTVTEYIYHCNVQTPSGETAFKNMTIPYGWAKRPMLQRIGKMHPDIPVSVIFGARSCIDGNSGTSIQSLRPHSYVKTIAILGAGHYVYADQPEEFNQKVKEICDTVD
# Target: Perilipin-1 (Homo sapiens) + 1-acylglycerol-3-phosphate O-acyltransferase ABHD5 (Homo sapiens) (UniProt O60240+Q8WTS1)
# Assay: ABHD5-PLIN1 interaction inhibitors, pilot screen, cell lysate, split luciferase complementation, luminescence, NIH validation set (AID 493027);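 note: 0% = DMSO wells with the 100% control not disclosed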
# Conditions: split G. princeps luciferase complementation, 4 h; at 7.9 µM, stronger effect = higher value
row,SMILES,inhibition
1,CC[N+]1(C)CC2CCC(C)(C1)C2(C)C (stereo unspecified),inactive: -1.14%
2,CC(C)(C)OC(=O)N1CCCC1C(=O)NC(Cc1ccccc1)C(=O)O (stereo not drawn) (Boc-Pro-Phe-OH; configuration not given here),inactive: -7.73%
3,COCCn1c(SCCOc2ccccc2)nc2ccccc2c1=O,inactive: -7.89%
4,COC(=O)c1cc(OC)c(OC)cc1NC(=O)Nc1ccc(OC)cc1OC,inactive: 5.92%
5,COc1ccc(CN2CCC(=O)NC2=O)cc1,inactive: -1.55%
6,COc1cc(C(=O)OCCn2c(=O)c3c(ncn3CCN(C)C)n(C)c2=O)cc(OC)c1OC,inactive: -2.64%
7,COc1ccc(-c2c[n+](CC(=O)OC3CC(C)CCC3C(C)C)c3n2CCC3)cc1 (stereo unspecified),inactive: 12.8%
8,O=C(COc1ccccc1)N1CCN(c2ccccc2)CC1,inactive: -2.07%
9,CN(C)CCC=C1c2ccccc2CCc2ccccc21,inactive: -12%
10,Cc1ccnc2c1NC(=O)c1cccnc1N2C1CC1,inactive: -8.35%
11,C#C[C@]1(O)CC[C@H]2[C@@H]3CCc4cc(OC5CCCC5)ccc4[C@H]3CC[C@@]21C,inactive: -7.44%
12,Cn1c(=O)c2[nH]cnc2n(C)c1=O,inactive: 3.05%
13,CC(C)COCC1CC2(CC(C)(c3csc(N)n3)OC2=O)C(=O)O1 (stereo unspecified),inactive: -11.4%
14,COc1c(C)cc(C(=O)C2CCCN(Cc3ccc(Oc4ncccn4)cc3)C2)cc1C (stereo unspecified),inactive: -2.41%
15,COc1ccc(CNCCC(c2ccc(F)cc2)c2ccc(OC(C)C)cc2)cc1OC (stereo unspecified),inactive: -6.56%
16,CCOC(=O)C1C2C=CC3(CN(c4ccc(Cl)c(F)c4)C(=O)C13)O2 (stereo unspecified),inactive: -9.58%
17,CCc1ccc2oc(=O)cc(CN3CCC(C)CC3)c2c1,inactive: -3.08%
18,CCOC(=O)C1=C(N)Oc2c(oc(CO)cc2=O)C1c1ccc(F)c(F)c1 (stereo unspecified),inactive: -2.04%
19,C[C@]12CC[C@H]3C(=CCc4cc(O)ccc43)[C@@H]1CCC2=O,inactive: 5.17%
20,Cc1ncc([N+](=O)[O-])n1CC(O)CCl (stereo unspecified),inactive: 1.63%
21,CN1C(C(=O)Nc2ccccn2)=C(O)c2sccc2S1(=O)=O,inactive: 2.28%
22,COc1ccc(C2C(=O)c3ccccc3C2=O)cc1,inactive: -2.92%
23,CCOC(=O)c1c(C)oc2cc(Br)c(OC(C)C(=O)OCC)cc12 (stereo unspecified),inactive: -5%
24,Cc1cccc(C)c1NC(=O)C1CCCCN1C (stereo unspecified),inactive: -13.7%

# Among those listed so far, three contain sulfur:
row,SMILES,inhibition
3,COCCn1c(SCCOc2ccccc2)nc2ccccc2c1=O,inactive: -7.89%
13,CC(C)COCC1CC2(CC(C)(c3csc(N)n3)OC2=O)C(=O)O1 (stereo unspecified),inactive: -11.4%
21,CN1C(C(=O)Nc2ccccn2)=C(O)c2sccc2S1(=O)=O,inactive: 2.28%

# Continued:

row,SMILES,inhibition
1,Nc1ccc(S(N)(=O)=O)cc1N,inactive: 1.88%
2,CC(C)OC(=O)CC1C(=O)NCCN1C(=S)NC(=O)c1ccccc1Cl (stereo unspecified),inactive: 1.72%
3,CC(C)Cc1ccc(C(C)C(=O)Nc2ccc(O)cc2)cc1 (stereo unspecified),inactive: 4.08%
4,CC(=O)NCCCCCCNC(C)=O,inactive: 3.05%
5,O=C(CC(C(=O)O)c1c[nH]c2ccccc12)c1ccccc1 (stereo unspecified),inactive: -2.61%
6,Cc1oc2cc(O)ccc2c(=O)c1Oc1ccccc1Br,inactive: 15.1%
7,Cc1nc(C)c(C)nc1C,inactive: -2.64%
8,COc1cc2cc(C(=O)O)[nH]c2c(OC)c1OC,inactive: -4.8%
9,CC(=O)N(C(C)=O)c1nc2nc(C)cc(C)n2n1,inactive: -0.49%
10,Nc1nnc(CSCc2ccc(Cl)cc2Cl)s1,inactive: -0.56%
11,O=C(/C=C/c1ccc2c(c1)OCCCO2)c1ccc2ccccc2c1O,inactive: 17.8%
12,C=CCOC(=O)C1=C(C)NC(=O)NC1/C=C/c1ccccc1OC (stereo unspecified),inactive: -5.03%
13,CC(=O)/C=C/c1ccc(C)o1,inactive: 18.2%
14,CC(=O)O[C@]1(C(C)=O)CC[C@H]2[C@@H]3C=C(C)C4=CC(=O)CC[C@]4(C)[C@H]3CC[C@@]21C,inactive: 0.09%
15,COc1ccc2c(c1)c(=O)oc1cc3occ(C(C)(C)C)c3cc12,inactive: -8.22%
16,COc1ccccc1CCn1cnc2c3cc(C)ccc3n(C)c2c1=O,inactive: 11.8%
17,C(=C/c1nccc2c1[nH]c1ccccc12)/c1ccc2c(c1)OCO2,inactive: 4.08%
18,OCC1CCN(Cc2cn(Cc3ccccc3)nc2-c2cc3ccccc3o2)CC1,inactive: 2.57%
19,CC1(C)Cc2ccccc2-c2n[nH]c(=S)n21,inactive: -17.3%
20,CC1CCCC(C)N1NC(=O)c1ccc(Cl)c(S(N)(=O)=O)c1 (stereo unspecified),inactive: -6.82%
21,Nc1nnc(-c2cccc(Cl)c2Cl)c(N)n1,inactive: -7.35%
22,CN(C)[C@@H]1C(=O)C(C(=O)NCN2CCCC2)=C(O)[C@@]2(O)C(=O)C3=C(O)c4c(O)cccc4[C@@](C)(O)C3CC12 (stereo partly specified),inactive: 4.91%
23,O=c1c(-c2ccccc2)c(O)c2cccc3c2n1CCC3,inactive: 0.02%
24,COc1ccc(C2=NOC(COc3ccc4c(C)cc(=O)oc4c3)C2)c(OC)c1 (stereo unspecified),inactive: 29.8%

row,SMILES,inhibition
1,COc1ccc(C2C3CCCCC3(O)CCN2C(=O)c2cccs2)cc1 (stereo unspecified),inactive: -2.09%
2,CCCC(=O)Nc1ccc(OCC(O)CNC(C)C)c(C(C)=O)c1 (stereo unspecified),inactive: -4.88%
3,CCn1c(C)cc2c(c1=O)C(c1ccccc1)C(C(=O)OC)=C(N)O2 (stereo unspecified),inactive: -2.29%
4,NC(=O)c1c(-c2ccccc2)oc2ccc(O)cc12,inactive: -4.07%
5,CC(=O)OCC(=O)[C@@]12OC3(CCCC3)O[C@@H]1C[C@H]1[C@@H]3CCC4=CC(=O)C=C[C@]4(C)[C@@]3(F)[C@@H](O)C[C@@]12C,inactive: 12.8%
6,CS(=O)(=O)c1cccc(C(=O)Oc2ccccc2)c1,inactive: 1.21%
7,Cc1cnc(N)c2c(=O)oc3ccccc3c12,inactive: -4.88%
8,CCC(=O)Oc1ccc(C(=O)Nc2ccc([N+](=O)[O-])cc2)cc1,inactive: 7.03%
9,COCCN(CCOC)Cc1c(C)[nH]c2c(C)c(C)ccc2c1=O,inactive: 6.03%
10,Cc1[nH]c2ccccc2c1C(=O)C(=O)NCc1ccco1,inactive: -8.34%
11,Cc1ccc(S(=O)(=O)NC(C(=O)Oc2cc3oc(=O)cc(C)c3cc2Cl)C(C)C)cc1 (stereo unspecified),inactive: 27.4%
12,CCOc1ccc2nc(N/C(N)=N/S(C)(=O)=O)nc(C)c2c1,inactive: 0.73%
13,CCOc1ccc(C(NC(C)=O)c2ccc(OC)c(OC)c2)cc1 (stereo unspecified),inactive: -10.9%
14,CC1(c2ccccc2)CC(C)(C)N2C(=O)C(=O)c3cccc1c32 (stereo unspecified),active: 65.7%
15,CC1/C(=C\c2ccc(Cl)cc2)C(=O)C2CC1C2(C)C (stereo unspecified),inactive: -9.57%
16,CN(C)CCOc1ccccc1Cc1ccccc1,inactive: 30.3%
17,CC1=CC(=O)c2ccccc2C1=O,active: 44.4%
18,COc1ccccc1/C=C/C(=O)OCCN1CCOCC1,inactive: -9.02%
19,COc1ccc(S(=O)(=O)NC(Cc2cnc[nH]2)C(=O)O)cc1 (stereo unspecified),inactive: 2.12%
20,C#CCN1C(=O)C(O)(CC(=O)c2ccc(OC)c(OC)c2)c2ccccc21 (stereo unspecified),inactive: 0.58%
21,CCCCC1C(=O)N(c2ccccc2)N(c2ccccc2)C1=O,inactive: 2.97%
22,COC(=O)[C@@H](N)CS,active: 65.9%
23,Cc1cn([C@H]2C[C@H](N=[N+]=[N-])[C@@H](CO)O2)c(=O)[nH]c1=O,inactive: -1.15%
24,O=C(CS(=O)(=O)c1ccccc1)c1ccc2c(c1)OCCO2,inactive: -12.8%

# As a short view, part of the list above:
row,SMILES,inhibition
23,Cc1cn([C@H]2C[C@H](N=[N+]=[N-])[C@@H](CO)O2)c(=O)[nH]c1=O,inactive: -1.15%
24,O=C(CS(=O)(=O)c1ccccc1)c1ccc2c(c1)OCCO2,inactive: -12.8%

# The list goes on.

row,SMILES,inhibition
1,COc1ccc([C@@H]2Sc3ccccc3N(CCN(C)C)C(=O)[C@@H]2OC(C)=O)cc1,inactive: -10.8%
2,CN(C)CCN(Cc1ccc(Cl)cc1)c1ccccn1,inactive: -4.65%
3,O=C(c1cccc2ccccc12)C1CCCN(C(=O)CCN2CCCO2)C1 (stereo unspecified),inactive: -7.39%
4,Cc1onc(-c2c(Cl)cccc2Cl)c1C(=O)NC1C(=O)N2C1SC(C)(C)C2C(=O)O (stereo unspecified),inactive: -6.51%
5,CN(CCCN1CCOCC1)Cc1cn(C)nc1-c1ccccc1F,inactive: -4.68%
6,Cc1cccc2c1CC(C)(C)N/C2=C\C(N)=O,inactive: 0.8%
7,CC(C[N+](C)(C)C)OC(N)=O (stereo unspecified),inactive: -3.45%
8,CCOC(=O)C1NN=C(C(=O)c2ccccc2)C1c1ccc(Cl)cc1 (stereo unspecified),inactive: 7.72%
9,COC(=O)c1cc(Br)c(=O)n(CCc2ccc(O)cc2)c1,inactive: 4.19%
10,Cc1ccc2c(c1)C(CCN)C(=O)N2Cc1ccccc1 (stereo unspecified),inactive: -10.9%
11,CC(C)c1ccc2[nH]c3c(c2c1)CCCC3=O,inactive: 3.94%
12,COc1cc(C(=O)NCCc2c[nH]c3ccccc23)ccc1OCc1c(C)noc1C,inactive: 17.5%
13,CN(C)CCCNc1ncnc2c1cnn2-c1ccccc1,inactive: -8.63%
14,COc1cc(NC(=O)COc2ccccc2)c(OC)cc1NC(C)=O,inactive: -10.3%
15,CN1/C(=C\C=Nc2ccccc2)C(C)(C)c2ccccc21,inactive: 4.41%
16,O=C(O)CCCNc1ccc(S(=O)(=O)Nc2ccccc2C(=O)O)cc1C(=O)O,inactive: -7.27%
17,Cc1ccc2c(ccc(=S)n2C)c1,inactive: -8.38%
18,CC1(C)[C@@H](O)CC[C@]2(C)[C@H]3C(=O)C=C4[C@@H]5C[C@@](C)(C(=O)O)CC[C@]5(C)CC[C@@]4(C)[C@]3(C)CC[C@@H]12,inactive: 4.92%
19,COCCOC(=O)C1=C(C)NC(C)=C(C(=O)OC(C)C)C1c1cccc([N+](=O)[O-])c1 (stereo unspecified),inactive: 6.11%
20,CN1C(C(=O)Nc2ccccn2)=C(O)c2ccccc2S1(=O)=O,inactive: -0.86%
21,COc1ccc2c(c1)C(=O)CC(c1ccccc1F)O2 (stereo unspecified),inactive: 1.66%
22,CC1(C)CC(c2csc(N)n2)CCO1 (stereo unspecified),inactive: -9.1%
23,C=C(C)COc1ccc(-c2n[nH]c(C)c2-c2ccc(OC)cc2)c(O)c1,inactive: -1.72%
24,O=C(CCCN1CCC(O)(c2ccc(Cl)cc2)CC1)c1ccc(F)cc1,inactive: -4.64%
